The supplement of paper PMC5393889
Some of the results follow.

The compounds below were run on Caenorhabditis elegans N2 (assay: aldicarb interaction hit call (worm growth perturbed in combination with 10 uM aldicarb in both replicates, no effect as single agent) (binary (1 = interacts)); higher = interacts with aldicarb (growth perturbed)). Conditions: first compound 1.5 µM; aldicarb concentration 10 µM; 6 days; 20 °C.

SMILES	aldicarb interaction hit call
CSc1ccc(/C=N/NC(=O)c2cccc(Cl)c2)cc1 [wact-365] + CNC(=O)O/N=C/C(C)(C)SC [aldicarb]	inactive: 0
Clc1ccc(Cn2nnc(-c3ccncc3)n2)cc1Cl [wact-575] + CNC(=O)O/N=C/C(C)(C)SC [aldicarb]	inactive: 0
Fc1ccccc1Cn1c(-c2cncs2)nc2ccccc21 [wact-93] + CNC(=O)O/N=C/C(C)(C)SC [aldicarb]	inactive: 0
N/C(=N\OC(=O)c1cc(Br)ccc1Cl)c1ccccn1 [wact-540] + CNC(=O)O/N=C/C(C)(C)SC [aldicarb]	inactive: 0
Cc1nc(CN2CCN(Cc3nc(-c4ccc(C(F)(F)F)cc4)no3)CC2)cs1 [wact-285] + CNC(=O)O/N=C/C(C)(C)SC [aldicarb]	inactive: 0
CN(C)c1cccc(-c2nc(-c3ccccc3)no2)c1 [wact-567] + CNC(=O)O/N=C/C(C)(C)SC [aldicarb]	inactive: 0
CC(=O)c1cccc(OCc2ccc(Cl)cc2)c1 [wact-223] + CNC(=O)O/N=C/C(C)(C)SC [aldicarb]	inactive: 0
Clc1ccc(OCc2nc(-c3cccnc3)no2)cc1 [wact-54] + CNC(=O)O/N=C/C(C)(C)SC [aldicarb]	inactive: 0
O=C(NCC1CC1)c1sc2cc(Cl)ccc2c1Cl [wact-123] + CNC(=O)O/N=C/C(C)(C)SC [aldicarb]	inactive: 0
Cc1cc(Cl)cc(Br)c1OCCCN1CCN(C)CC1.Cl [wact-143] + CNC(=O)O/N=C/C(C)(C)SC [aldicarb]	inactive: 0
CN(Cc1ccn[nH]1)Cc1cn(-c2ccc(F)cc2)nc1-c1ccccc1Cl [wact-312] + CNC(=O)O/N=C/C(C)(C)SC [aldicarb]	inactive: 0

2 consecutive records from above, quoted:
SMILES	aldicarb interaction hit call
N/C(=N\OC(=O)c1cc(Br)ccc1Cl)c1ccccn1 [wact-540] + CNC(=O)O/N=C/C(C)(C)SC [aldicarb]	inactive: 0
Cc1nc(CN2CCN(Cc3nc(-c4ccc(C(F)(F)F)cc4)no3)CC2)cs1 [wact-285] + CNC(=O)O/N=C/C(C)(C)SC [aldicarb]	inactive: 0
